Assay results from patent US20220409694A1, “POLYPEPTIDE, AND PREPARATION METHOD THEREFOR AND USE THEREOF” (SHANXI JINBO BIO-PHARMACEUTICAL CO., LTD., priority 2020, published 2022).
Some of these results come from one statement about several compounds together.

Legend:
[1] = system: cell-cell fusion mediated by the S protein of 2019-nCoV; type: cell-based; conditions: fold better than EK1, up to about
[2] = system: 2019-nCoV pseudovirus

Structure (SMILES)	inhibitory activity relative to EK1, 2019-nCoV cell-cell fusion [1]	inhibitory activity relative to EK1, 2019-nCoV pseudoviruses and live viruses [2]
CCCCCCCCCCCCCCCC(=O)NCCCC[C@H](NC(=O)CCOCCOCCOCCOCCNC(=O)CNC(=O)[C@H](CO)NC(=O)CNC(=O)[C@H](CC(C)C)NC(=O)[C@H](CCC(=O)O)NC(=O)[C@H](CCCCN)NC(=O)[C@H](CC(C)C)NC(=O)[C@H](CC(=O)O)NC(=O)[C@@H](NC(=O)[C@H](Cc1ccc(O)cc1)NC(=O)[C@H](CO)NC(=O)[C@H](CCC(=O)O)NC(=O)[C@H](CCC(=O)O)NC(=O)[C@H](CC(C)C)NC(=O)[C@H](CCCCN)NC(=O)[C@H](CCCCN)NC(=O)[C@@H](NC(=O)[C@H](C)NC(=O)[C@H](CCC(=O)O)NC(=O)[C@H](CCC(=O)O)NC(=O)[C@H](CC(C)C)NC(=O)[C@H](CCCCN)NC(=O)[C@H](CCCCN)NC(=O)[C@H](CCSC)NC(=O)[C@H](CCC(=O)O)NC(=O)[C@H](Cc1ccc(O)cc1)NC(=O)[C@H](CCC(=O)O)NC(=O)[C@H](CC(C)C)NC(=O)[C@H](CC(=O)O)NC(=O)[C@H](CC(C)C)NC(=O)[C@H](Cc1ccccc1)NC(=O)[C@@H](NC(=O)[C@@H](NC(=O)[C@H](CC(N)=O)NC(=O)[C@@H](NC(=O)[C@H](CCC(N)=O)NC(=O)[C@H](CC(=O)O)NC(=O)[C@H](CC(C)C)NC(=O)[C@@H](N)CO)[C@@H](C)CC)C(C)C)[C@@H](C)O)[C@@H](C)CC)[C@@H](C)CC)C(=O)O [EK1-plam]	10-100 times	6-120 times
CC[C@H](C)[C@H](NC(=O)[C@H](C)NC(=O)[C@H](CCC(=O)O)NC(=O)[C@H](CCC(=O)O)NC(=O)[C@H](CC(C)C)NC(=O)[C@H](CCCCN)NC(=O)[C@H](CCCCN)NC(=O)[C@H](CCSC)NC(=O)[C@H](CCC(=O)O)NC(=O)[C@H](Cc1ccc(O)cc1)NC(=O)[C@H](CCC(=O)O)NC(=O)[C@H](CC(C)C)NC(=O)[C@H](CC(=O)O)NC(=O)[C@H](CC(C)C)NC(=O)[C@H](Cc1ccccc1)NC(=O)[C@@H](NC(=O)[C@@H](NC(=O)[C@H](CC(N)=O)NC(=O)[C@@H](NC(=O)[C@H](CCC(N)=O)NC(=O)[C@H](CC(=O)O)NC(=O)[C@H](CC(C)C)NC(=O)[C@@H](N)CO)[C@@H](C)CC)C(C)C)[C@@H](C)O)C(=O)N[C@@H](CCCCN)C(=O)N[C@@H](CCCCN)C(=O)N[C@@H](CC(C)C)C(=O)N[C@@H](CCC(=O)O)C(=O)N[C@@H](CCC(=O)O)C(=O)N[C@@H](CO)C(=O)N[C@@H](Cc1ccc(O)cc1)C(=O)N[C@H](C(=O)N[C@@H](CC(=O)O)C(=O)N[C@@H](CC(C)C)C(=O)N[C@@H](CCCCN)C(=O)N[C@@H](CCC(=O)O)C(=O)N[C@@H](CC(C)C)C(=O)NCC(=O)N[C@@H](CO)C(=O)NCC(=O)N[C@@H](CO)C(=O)NCC(=O)NCCOCCOCCOCCOCCC(=O)N[C@@H](CSCC(=O)O[C@H]1CC[C@@]2(C)C(=CC[C@H]3[C@@H]4CC[C@H]([C@H](C)CCCC(C)C)[C@@]4(C)CC[C@@H]32)C1)C(=O)O)[C@@H](C)CC [EK1-chol]	10-100 times	6-120 times
